Experimental data reported in PMC4661524 (Scientific Reports, 2015).
Numbering of substitutions follows the chain as printed. Results are given in words; binding and its absence hold for the method and conditions named. Some binding calls cover weakened binding; strength is not graded here.

The chains behind the UniProt entries cited, without tags or fusion partners. Where a name states a change or a piece, a line headed by the entry shows the natural chain unless it says otherwise.
UniProt P28067: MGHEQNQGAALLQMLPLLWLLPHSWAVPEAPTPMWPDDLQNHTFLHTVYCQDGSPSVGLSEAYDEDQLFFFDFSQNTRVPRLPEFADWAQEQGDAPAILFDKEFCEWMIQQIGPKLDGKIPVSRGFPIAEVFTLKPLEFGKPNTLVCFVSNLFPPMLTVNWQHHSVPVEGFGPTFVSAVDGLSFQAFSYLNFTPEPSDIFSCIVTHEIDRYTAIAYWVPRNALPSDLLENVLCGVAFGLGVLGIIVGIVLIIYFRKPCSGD

Tests used:
[1] = biological target: T1, wild type HLA-DO ectodomain of the DM-DO ectodomain complex (human) (UniProt P06340+P13765); assay: BLI; Octet QK, 37 C, pH 6.3; biotinylated wild type DM-DO complex held on a streptavidin biosensor, dissociation followed in kinetic buffer for over 4 hours; both purified
T1 sequence (chain, biotin on the C-terminal avitag (BirA), in the BLI experiment) 1: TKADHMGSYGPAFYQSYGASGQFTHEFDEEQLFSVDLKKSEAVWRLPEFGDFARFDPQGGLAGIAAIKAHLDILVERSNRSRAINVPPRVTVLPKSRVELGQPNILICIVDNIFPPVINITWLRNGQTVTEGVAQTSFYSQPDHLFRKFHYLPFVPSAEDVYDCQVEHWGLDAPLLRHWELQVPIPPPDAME
T1 sequence (chain, biotin on the C-terminal avitag (BirA), in the BLI experiment) 2: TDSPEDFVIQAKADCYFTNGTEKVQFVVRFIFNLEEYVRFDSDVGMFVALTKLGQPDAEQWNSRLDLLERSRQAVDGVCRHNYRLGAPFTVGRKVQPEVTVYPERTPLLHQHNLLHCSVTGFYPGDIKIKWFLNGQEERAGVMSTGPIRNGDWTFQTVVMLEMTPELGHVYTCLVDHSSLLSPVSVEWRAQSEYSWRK

[2] = biological target: T2, biotinylated stabilized HLA-DO variant ectodomain (alpha P11A) (human) (UniProt P06340+P13765); assay: BLI; Octet QK, 37 C, pH 6.3; biotinylated DOv on streptavidin biosensors, soluble DM at several concentrations, then long dissociation in kinetic buffer; both purified
T2 sequence (chain, biotin on the C-terminal avitag (BirA)) 1: T1 sequence (chain, biotin on the C-terminal avitag (BirA), in the BLI experiment) 1 with P11A
T2 sequence (chain, biotin on the C-terminal avitag (BirA)) 2: T1 sequence (chain, biotin on the C-terminal avitag (BirA), in the BLI experiment) 2

Row | Substance | binding [1] | binding [2]
1 | HLA-DM ectodomain of the wild type DM-DO ectodomain complex (from UniProt P28067 27-233; P28068 19-218) (domain or fragment) | binds | 
2 | soluble HLA-DM ectodomain (from UniProt P28067 27-233; P28068 19-218) (domain or fragment) |  | binds
